Measured values: the supplement of paper PMC3334620
In all, about 33,000 sequences were measured (“E-score (-0.5 to 0.5)”: median about -0.016, highest 2% from about 0.3 on). Some of the results follow.

target: T1, Yer184c (UniProt P39961); test: PBM E-score (8-mer binding enrichment) (E-score (-0.5 to 0.5)); higher = stronger / more preferred TF binding; conditions: protein concentration: 100 nM; construct: GST-full length
T1 sequence: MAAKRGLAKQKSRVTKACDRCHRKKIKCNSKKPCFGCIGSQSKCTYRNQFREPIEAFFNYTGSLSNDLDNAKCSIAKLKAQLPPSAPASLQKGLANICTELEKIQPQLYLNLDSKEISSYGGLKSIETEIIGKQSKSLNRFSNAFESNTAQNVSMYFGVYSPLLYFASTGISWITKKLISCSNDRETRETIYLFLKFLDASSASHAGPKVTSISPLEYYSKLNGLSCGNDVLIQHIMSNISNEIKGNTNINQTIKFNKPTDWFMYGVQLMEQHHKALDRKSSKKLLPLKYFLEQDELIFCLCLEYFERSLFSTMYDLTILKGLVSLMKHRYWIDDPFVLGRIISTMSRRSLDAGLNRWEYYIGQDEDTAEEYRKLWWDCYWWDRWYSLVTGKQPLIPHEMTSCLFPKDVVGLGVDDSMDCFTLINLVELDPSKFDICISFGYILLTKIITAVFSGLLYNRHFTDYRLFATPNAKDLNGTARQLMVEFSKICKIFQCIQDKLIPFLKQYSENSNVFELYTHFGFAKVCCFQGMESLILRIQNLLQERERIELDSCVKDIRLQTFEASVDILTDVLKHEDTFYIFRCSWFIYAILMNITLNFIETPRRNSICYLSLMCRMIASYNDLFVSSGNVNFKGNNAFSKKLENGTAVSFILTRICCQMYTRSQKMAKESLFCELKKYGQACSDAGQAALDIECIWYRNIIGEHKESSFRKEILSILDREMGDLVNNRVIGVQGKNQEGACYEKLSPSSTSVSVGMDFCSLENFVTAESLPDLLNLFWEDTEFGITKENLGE
Method in brief: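 For each ungapped eight-base word taken together with its reverse complement, the Universal PBM Analysis Suite assigned an E-score. Binding data came from GST-tagged yeast transcription factors, applied at about 100-200 nM, on universal all-10-mer Agilent arrays made double-stranded by primer extension. Fluorescent anti-GST marked bound protein, and scans were normalised with masliner.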

Sequence	PBM E-score
GCAGGCGA	-0.119
TAAATAAA	0.161
CAGCGTTA	-0.141
CTATTTGA	0.124
CCCACCCA	-0.319
TAATGTCA	-0.064
GAAGATAC	0.162
AACTAGGA	-0.0501
AACTATGG	-0.162
GCTAGGCC	-0.0163
AGTATTAT	0.0439
AGAACTTC	-0.072
CAAAAATG	0.00191
AAAGGTTG	-0.194
CCTGACGC	-0.283
AGGACAGG	-0.113
AAATACGT	-0.0619
CTCTGCGA	-0.166
TATGTCGA	0.105
CTCGTTAC	-0.144
AAGGCTCC	-0.285
CCGACCCC	-0.21

Sequence	PBM E-score
AACGAACG	0.111
CTTGTCTA	0.0607
CTATCACC	-0.172
AGATCCCA	-0.181
AGACGCTC	-0.228
CTTCTTGA	-0.0452
CTTTACAA	-0.0597
ACCAGAGA	-0.142
GGCGAATA	-0.0587
GCACTAAA	0.224
GTTAACGA	0.0155
ACTGGACG	-0.162
CAGCTGGA	-0.0431
AGATTGTC	0.0109
GGAGTCAA	-0.0229
GCAACACA	-0.0165
AACCATGT	-0.0392
ACCGAATG	0.178
AAACGCCG	0.334
AGTCTAAC	-0.0707
ACCTCTGA	-0.0461
GAGAGGGC	-0.293

Sequence	PBM E-score
CAACGGGG	-0.179
CCGTCAAG	0.0264
AACAATAA	0.255
ATCACCAT	0.034
CATTTAAC	0.133
CTCGCCAC	-0.188
CCCAAGGA	-0.0911
GTATCGAC	-0.00889
ATTCACCG	0.246
AAAGGCCC	-0.131
AGCATTCA	-0.0157
GATGCATC	0.285
ATCCATAA	0.168
AGTGATTC	0.0038
ACGGTAAT	0.073
ACATCAGA	0.0273
AACCTGGC	-0.0868
CCCCTGGC	-0.309
CGAGATGA	0.0904
CAGTGAAG	-0.0888
ATCTTGGG	-0.176
GTAGAGTA	0.0481

Looked up above.
Value of CGAGATGA under PBM E-score: 0.0904
Value of AACCTGGC under PBM E-score: -0.0868

Going on with the list.

Sequence	PBM E-score
GGTCACAA	0.0767
GACTAATC	0.0313
GTCCCAAC	-0.18
ACTAATTC	0.172
CAAGGTGC	-0.142
ACCATCAC	-0.0965
GCGAACTA	0.0917
AGCATTGC	-0.0349
CGGCAAAG	0.201
GGGTACAA	-0.127
ACGTTTCA	0.0546
CGACCGGC	0.27
AGACGTGC	0.0927
GCGTAAGA	0.0272
AGCCTGTA	-0.0568
AACGGAGG	0.0793
AAAATCCA	-0.0451
GACTACCC	-0.266
AATAGGCG	0.135
AACTCTGT	0.0128

Laid out differently: entries from further up.
Sequence | PBM E-score
AAAATCCA | -0.0451
GACTACCC | -0.266
